Assay results as given in paper PMC6199744, “Development of Chemical Proteomics for the Folateome and Analysis of the Kinetoplastid Folateome” (ACS Infectious Diseases, 2018).
This continues a long series; more values of the same kind are listed elsewhere.

System: L. major lysate proteins
Assay: Multitargeted bead mixture chemoproteomics, single concentration competition, proteome-wide
Format: binding
Conditions: vehicle control = 1

CCCCCCOc1cccc(Cc2cnc(N)nc2N)c1 [compound 2]
fold change (LINJ.11.0960 40S RIBOSOMAL PROTEIN S5): 0.94
fold change (LINJ.11.1180 40S RIBOSOMAL PROTEIN S15A, PUTATIVE): 1.25
fold change (LINJ.15.1170 HYPOTHETICAL PROTEIN, CONSERVED): 0.98
fold change (LINJ.18.0270 GLYCOGEN SYNTHASE KINASE 3): 0.8
fold change (LINJ.21.1790 40S RIBOSOMAL PROTEIN S11, PUTATIVE): 1.06
fold change (LINJ.22.0180 HYPOTHETICAL PROTEIN, CONSERVED): 0.79
fold change (LINJ.25.2170 HY[…], CONSERVED): 1.15
fold change (LINJ.28.2870 PROTEIN PHOSPHATASE 4 CATALYTIC SUBUNIT, PUTATIVE): 0.73
fold change (LINJ.29.0020 TRANSCRIPTION FACTOR-LIKE PROTEIN): 0.82
fold change (LINJ.29.0110 HYPOTHETICAL PROTEIN, CONSERVED): 0.65
fold change (LINJ.33.0960 40S RIBOSOMAL PROTEIN S3, PUTATIVE): 1.18
fold change (LINJ.35.1820 HYPOTHETICAL PROTEIN, CONSERVED): 0.84
fold change (LINJ.35.2240 RNA-BINDING PROTEIN, PUTATIVE): 0.8
fold change (LINJ.36.1160 RIBOSOMAL PROTEIN L24, PUTATIVE): 1.03
fold change (LINJ.36.1580 HYPOTHETICAL PROTEIN, CONSERVED,NIMA-RELATED PROTEIN KINASE, PUTATIVE): 0.92
fold change (LMJF.01.0570 TRIC[…], PUTATIVE): 0.94
fold change (LMJF.03.0190 U2 SPLICING AUXILIARY FACTOR, PUTATIVE): 1
fold change (LMJF.03.0540 26S PROTEASE […], PUTATIVE): 1.35
fold change (LMJF.05.0280 PROTEIN TYROSINE PHOSPHATASE, PUTATIVE): 0.99
fold change (LMJF.05.1140 VACUOLAR ATPASE SUBUNIT-LIKE PROTEIN): 0.83
fold change (LMJF.06.0370 GLUTAMINE SYNTHETASE, PUTATIVE): 0.97
fold change (LMJF.07.1050 CATION-TRANSPORTING ATPASE, PUTATIVE): 0.99
fold change (LMJF.08.0410 HYPOTHETICAL PROTEIN, CONSERVED): 0.83
fold change (LMJF.08.1130 PHOSPHORIBOSYLPYROPHOSPHATE SYNTHETASE): 0.94
fold change (LMJF.10.0310 PROTEIN TRANSPORT PROTEIN SEC23, PUTATIVE): 1.13
fold change (LMJF.10.0910 SMALL GTP-BINDING PROTEIN RAB11, PUTATIVE): 0.96
fold change (LMJF.11.0590 3-[…]-COA C[…] SUBUNIT, PUTATIVE): 1
fold change (LMJF.11.1000 PYRUVATE PHOSPHATE DIKINASE, PUTATIVE): 1.03
fold change (LMJF.11.1030 HY[…], CONSERVED): 1.08
fold change (LMJF.13.1230 40S RIBOSOMAL PROTEIN S4, PUTATIVE): 1.08
fold change (LMJF.14.0670 FATTY ACID ELONGASE, PUTATIVE): 1.02
fold change (LMJF.14.1320 SERINE HYDROXYMETHYLTRANFERASE (SHMT-S)): 0.97
fold change (LMJF.15.0040 HYPOTHETICAL PROTEIN, CONSERVED): 0.99
fold change (LMJF.15.0970 NAD/FAD DEPENDENT DEHYDROGENASE, PUTATIVE): 1.36
fold change (LMJF.16.0440 FUCOSE KINASE, PUTATIVE): 0.91
fold change (LMJF.16.0550 OROTIDINE-5-PHOSPHATE DECARBOXYLASE/OROTATE PHOSPHORIBOSYLTRANSFERASE, PUTATIVE): 1.03
fold change (LMJF.17.1290 T[…], PUTATIVE): 1.05
fold change (LMJF.18.0700 HYPOTHETICAL PROTEIN, CONSERVED): 0.89
fold change (LMJF.18.1090 CAMP PHOSPHODIESTERASE A, PUTATIVE): 0.89
fold change (LMJF.18.1280 HY[…], CONSERVED): 1.16
fold change (LMJF.18.1510 P-TYPE H -ATPASE, PUTATIVE): 1.16
fold change (LMJF.19.0200 ADP,ATP CARRIER PROTEIN 1, MIT[…], PUTATIVE): 1.15
fold change (LMJF.19.1510 HYPOTHETICAL PROTEIN, CONSERVED): 1.28
fold change (LMJF.20.1180 CALPAIN-LIKE CYSTEINE PEPTIDASE, PUTATIVE): 0.95
fold change (LMJF.21.0015 HISTONE H4): 1.02
fold change (LMJF.21.0250 HEXOKINASE, PUTATIVE): 1.03
fold change (LMJF.21.0820 HY[…], CONSERVED): 0.95
fold change (LMJF.21.1450 ARGININE N-METHYLTRANSFERASE, TYPE II, PUTATIVE): 0.78
fold change (LMJF.21.1770 ATP SYNTHASE F1 SUBUNIT GAMMA PROTEIN, PUTATIVE): 1.26
fold change (LMJF.21.1860 BETA TUBULIN): 1.14
fold change (LMJF.22.0770 NADH-CYTOCHROME B5 REDUCTASE, PUTATIVE): 1.1
fold change (LMJF.22.0990 HY[…], CONSERVED): 1.01
fold change (LMJF.22.1630 CCR4 ASSOCIATED FACTOR, PUTATIVE): 0.78
fold change (LMJF.23.0080 HYPOTHETICAL PROTEIN, CONSERVED): 0.87
fold change (LMJF.23.0110 GDP-MANNOSE PYROPHOSPHORYLASE): 0.83
fold change (LMJF.23.0210 ATP-BINDING CASSETTE PROTEIN SUBFAMILY C, MEMBER 1, PUTATIVE): 0.9
fold change (LMJF.23.0640 HYPOTHETICAL PROTEIN, CONSERVED): 0.82
fold change (LMJF.24.0070 HYPOTHETICAL PROTEIN, CONSERVED): 0.97
fold change (LMJF.27.0130 HYPOTHETICAL PROTEIN, CONSERVED): 1.28
fold change (LMJF.27.0650 HY[…], CONSERVED): 1.2
fold change (LMJF.28.2510 ACYL-COA DEHYDROGENASE, PUTATIVE): 0.94
fold change (LMJF.29.1500 HYPOTHETICAL PROTEIN, CONSERVED): 0.98
fold change (LMJF.29.2200 GTP-BINDING PROTEIN, PUTATIVE): 0.98
